Values of other authors as cited in article PMC9040839 (mBio, 2022).
“And” between values parts separate entries of the source, which are not always exact repeats. Equal values may be shown once.

Target: PctC chemoreceptor
Details: cited from earlier work

NCCCC(=O)O [GABA, gamma-aminobutyrate]
Kd: 1200 nM and 640 nM
